Assay results as given in patent US20090270312A1, “HIV-I GP41 FUSION PEPTIDES FOR IMMUNOMODULALTION” (priority 2005, published 2009).
Part of at least one peptide drawing is inferred or uncertain, most often the ends. Residues, ends and D or L forms follow the SMILES beside them.

What was measured:
A2b T cells [1] = experiment: A2b T cell clone IFNγ release upon stimulation with Mt176-90; type: cell-based, rat; details: activation by Mt176-90 in the presence of peptide
lymph node cells (LNC) [2] = experiment: T-cell proliferation of LNC from Mt immunized rats ([methyl-3H]-thymidine incorporation); type: cell-based, rat; details: for inhibition of T-cell proliferative responses: antigen PPD or Mt176-90, FIGS. 3A-B
Protocol: T-cell proliferation. T-cell proliferation assays were performed using either lymph node cells (LNC) or the A2b T cell line, which reacts with the Mt176-90 peptide. Popliteal and inguinal LNC were removed 26 days after the injection of Mt in incomplete Freund's adjuvant (IFA), when strong T cell responses to PPD and Mt176-90 are detectable (Quintana et al., 2002). LNC were cultured at a concentration of 2×10^5 cells per well; 5×10^4 A2b T cells were stimulated in the presence of irradiated 5×10^5 thymic antigen presenting cells (APC) per well, prepared as previously described (van Eden et al., 1985). The cells were plated in quadruplicates in 200 μl round bottom microtiter wells (Costar Corp., Cambridge, USA), with or without antigen, in the presence of various concentrations of the peptides under study. For some experiments, the cells were activated with immobilized anti-CD3 antibodies or PMA/ionomycin as described (Wang et al., 2002). Cultures were incubated for 72 hr at 37° C. in a humidified atmosphere of 7.5% CO2. T-cell responses were detected by the incorporation of [methyl-3H]-thymidine (Amersham, Buckinghamshire, UK; 1 μCi/well), added during the last 18 hr of incubation. The results of T cell proliferation experiments are shown as the % of inhibition of the T cell proliferation triggered by the antigenin the absence of HIV or control peptides.
To determine whether the insertion of FP into the IS interferes with T-cell activation, the T-cell response of LNC of Mt immunized rats to the Mt antigen PPD or to the Mt176-90 peptide was studied; these antigens are known to induce strong proliferative responses and cytokine release from T cells in the draining LNC of AA rats (Quintana et al., 2003; Quintana et al., 2002).

A2b T cells [3] = experiment: A2b T-cell activation induced by PMA/ionomycin or antibodies to CD3; type: cell-based, rat
Balb/c mice = experiment: DTH response to oxazolone, dermal treatment; type: in vivo; details: 100 μg in 40 μl DMSO on the ear one hour after challenge, measured 24 h after challenge
Protocol: In other experiments, DTH response to oxazolone in the presence of FP and IFFA was measured. Female Balb/c mice (5 mice per group) were sensitized to the shaved abdominal skin with 100 microliter of 2% oxazolone dissolved in acetone/olive oil (4:1 vol/vol) applied topically, and 5 days later challenged with 20 microliter of 0.5% oxazolone in acetone/olive oil, 10 microliter administered to each side of the ear. One hour after stimulation, FP, IFFA (100 μg in 40 μl DMSO) or DMSO were administered to each side of the ear. A constant area of the ear was measured immediately before challenge and 24 h after challenge.

A2b T cells [4] = experiment: A2b T cell clone proliferation upon stimulation with Mt176-90 and APC; type: cell-based, rat; details: for A2b proliferation after pre-incubation of the A2b T cells with peptide: T cells pre-incubated 2 hours
Lewis rats [5] = experiment: Adjuvant Arthritis (AA); type: in vivo, rat; details: for arthritis, clinical score: 100 μg peptide in IFA with Mt at AA induction
Protocol: Induction and Assessment of Adjuvant Arthritis (AA). To test the effect of FP on T-cell activation in vivo, AA was used as a model system. AA was induced by injecting 50 μl of Mt suspended in IFA (0.5 mg/ml) at the base of the tail. At the time of AA induction, each rat also received 100 μg of FP or control peptide, or PBS dissolved in 50 μl of IFA and mixed with Mt/IFA used to induce AA. The day of AA induction was designated as day 0. Disease severity was assessed by direct observation of all 4 limbs in each animal. A relative score between 0 and 4 was assigned to each limb, based on the degree of joint inflammation, redness and deformity; thus the maximum possible score for an individual animal was 16 (Quintana et al., 2002). The mean AA score (±SEM) is shown for each experimental group. Arthritis was also quantified by measuring hind limb diameter with a caliper. Measurements were taken on the day of the induction of AA and 26 days later (at the peak of AA); the results are presented as the mean±SEM of the difference between the two values for all the animals in each group. The person who scored the disease was blinded to the identity of the groups.
AA was induced in rats as indicated above; at the time of AA induction, each rat also received 100 μg of IFFA or PBS dissolved in 50 μl of IFA and mixed with Mt/IFA used to induce AA. Disease severity was assessed as described above.

Lewis rats [6] = experiment: Delayed type hypersensitivity (DTH) response to PPD after AA induction; type: in vivo, rat; details: 16 days after AA induction, ear thickness 48 hr later
lymph node cells (LNC) [7] = experiment: Cytokine assays (ELISA) on LNC from Mt immunized rats; type: cell-based, rat; details: stimulation with PPD or Mt176-90, 72 hr
LNC from treated rats = experiment: IFNγ secretion of LNC from peptide-treated AA rats upon stimulation with HSP71 or Mt176-90; type: in vivo, rat; details: day 26, stimulation with HSP71 or Mt176-90
LNC from injected rats = experiment: T cell immunity to the injected peptide: IFN-γ secretion of LNC incubated ex vivo with the same peptide; type: in vivo, rat; details: for ex vivo activation (IFN-γ secretion) of LNC by the injected peptide: LNC collected 26 days after injection with Mt and IFA
Description: Cytokine assays. Supernatants were collected after 72 hr of stimulation, and rat IL-10 and IFNγ were quantified by enzyme-linked immunosorbent assay (ELISA) using Pharmingen's OPTEIA kit (Pharmingen, San Diego, USA) as described (Quintana et al., 2002). When needed, cytokine levels are expressed as percentage of cytokine inhibition relative to cytokine levels when no peptide is present. Otherwise, the cytokines are shown as pg/ml. The lower limits of detection for the experiments described in this paper were 15 pg/ml for IL-10 and IFNγ. Cytokine amounts were calculated based on calibration curves constructed using recombinant cytokines as standards.
LNC (incubated with PBS). […] Thus, the immunosuppressive effect of FP is sequence and structure specific.

| Compound | A2b IFNγ release (A2b T cells [1]) | inhibition of T-cell proliferative responses (lymph node cells (LNC) [2]) | inhibition of A2b activation by PMA/ionomycin (A2b T cells [3]; FIG. 5A) | inhibition of A2b activation by mitogenic anti-CD3 (A2b T cells [3]; FIG. 5B) | DTH reaction to oxazolone (Balb/c mice) | A2b proliferation after pre-incubation of the APC with peptide (A2b T cells [4]; APC pre-incubated 2 hours, washed) | A2b proliferation after pre-incubation of the A2b T cells with peptide (A2b T cells [4]; washed) | A2b cell proliferation (A2b T cells [4]; activation by Mt176-90 in the presence of peptide) | arthritis, ankle swelling (Lewis rats [5]; 100 μg peptide at AA induction, day 26) | mean maximum AA score (Lewis rats [5]; 100 μg peptide at AA induction, maximum possible score 16, ±SEM) | arthritis, clinical score (Lewis rats [5]) | reduction in the DTH response to PPD (Lewis rats [6]) | inhibition of secretion of IFNγ (lymph node cells (LNC) [7]) | inhibition of secretion of IL-10 (lymph node cells (LNC) [7]) | IFNγ secretion of LNC from treated rats (LNC from treated rats) | ex vivo activation (IFN-γ secretion) of LNC by the injected peptide (LNC from injected rats) | inhibitory effect on proliferation compared with FP (lymph node cells (LNC) [2]; antigen PPD or Mt176-90) | ex vivo activation relative to FP (LNC from injected rats; LNC collected 26 days after injection) |
| --- | --- | --- | --- | --- | --- | --- | --- | --- | --- | --- | --- | --- | --- | --- | --- | --- | --- | --- |
| CC[C@H](C)[C@H](NC(=O)CNC(=O)[C@@H](NC(=O)[C@H](C)N)C(C)C)C(=O)NCC(=O)N[C@@H](C)C(=O)N[C@@H](CC(C)C)C(=O)N[C@@H](Cc1ccccc1)C(=O)N[C@@H](CC(C)C)C(=O)NCC(=O)N[C@@H](Cc1ccccc1)C(=O)N[C@@H](CC(C)C)C(=O)NCC(=O)N[C@@H](C)C(=O)N[C@@H](C)C(=O)NCC(=O)N[C@@H](CO)C(=O)N[C@H](C(=O)N[C@@H](CCSC)C(=O)NCC(=O)N[C@@H](C)C(=O)N[C@@H](CCCNC(=N)N)C(=O)N[C@@H](CO)C(=O)N[C@@H](CCSC)C(=O)N[C@H](C(=O)N[C@@H](CC(C)C)C(=O)N[C@H](C(=O)N[C@H](C(=O)N[C@@H](CCC(N)=O)C(=O)N[C@@H](C)C(=O)N[C@@H](CCCNC(=N)N)C(=O)N[C@@H](CCC(N)=O)C(=O)N[C@@H](CC(C)C)C(=O)O)C(C)C)[C@@H](C)O)[C@@H](C)O)[C@@H](C)O [FP] | less IFNγ release | inhibited the T-cell proliferative responses to PPD and to Mt176-90 in a dose-dependent manner | did not inhibit | did not inhibit | inhibited the DTH reaction | had no effect on A2b proliferation | significant inhibition of T cell proliferation | decreased cell proliferation | significantly milder arthritis | 7.3±0.7 | significantly milder arthritis | 35% | inhibited in a dose-dependent manner | inhibited in a dose-dependent manner | reduced secretion of IFNγ | could not be activated by FP ex vivo |  |  |
| CC[C@H](C)[C@H](NC(=O)CNC(=O)[C@H](CCC(=O)O)NC(=O)[C@H](C)N)C(=O)NCC(=O)N[C@@H](C)C(=O)N[C@@H](CC(C)C)C(=O)N[C@@H](Cc1ccccc1)C(=O)N[C@@H](CC(C)C)C(=O)NCC(=O)N[C@@H](Cc1ccccc1)C(=O)N[C@@H](CC(C)C)C(=O)NCC(=O)N[C@@H](C)C(=O)N[C@@H](C)C(=O)NCC(=O)N[C@@H](CO)C(=O)N[C@H](C(=O)N[C@@H](CCSC)C(=O)NCC(=O)N[C@@H](C)C(=O)N[C@@H](CCCNC(=N)N)C(=O)N[C@@H](CO)C(=O)N[C@@H](CCSC)C(=O)N[C@H](C(=O)N[C@@H](CC(C)C)C(=O)N[C@H](C(=O)N[C@H](C(=O)N[C@@H](CCC(N)=O)C(=O)N[C@@H](C)C(=O)N[C@@H](CCCNC(=N)N)C(=O)N[C@@H](CCC(N)=O)C(=O)N[C@@H](CC(C)C)C(=O)O)C(C)C)[C@@H](C)O)[C@@H](C)O)[C@@H](C)O [V2E] |  | inhibited the T-cell proliferative responses to PPD and to Mt176-90 in a dose-dependent manner |  |  |  |  |  |  |  |  | did not inhibit AA | 25% | to a lesser extent | to a lesser extent | affected IFNγ secretion only slightly | moderate ex vivo activation | lower than that of FP | about five fold higher than that of FP |
| CC[C@H](C)[C@H](NC(=O)[C@H](CS)NC(=O)[C@H](CCCNC(=N)N)NC(=O)[C@H](CC(C)C)NC(=O)[C@H](CC(C)C)NC(=O)[C@H](C)NC(=O)[C@H](CS)NC(=O)CNC(=O)CNC(=O)CNC(=O)[C@H](CC(C)C)NC(=O)[C@@H](N)C(C)C)C(=O)N1CCC[C@H]1C(=O)N[C@@H](C)C(=O)N[C@@H](CC(C)C)C(=O)N[C@@H](CC(=O)O)C(=O)N[C@@H](CO)C(=O)N[C@@H](CC(C)C)C(=O)N[C@H](C(=O)N1CCC[C@H]1C(=O)N[C@@H](C)C(=O)N[C@@H](CC(N)=O)C(=O)N[C@@H](CCC(=O)O)C(=O)N[C@@H](CC(=O)O)C(=O)O)[C@@H](C)O [p277, reference compound] (H-VLGGGCALLRCIPALDSLTPANED-OH) |  |  |  |  |  |  | not with the control peptide p277 |  |  |  |  | 10% |  |  | affected IFNγ secretion only slightly |  |  |  |
